No constants are given. Whether binding was seen depends on the method and setting. Binding seen in cells or lysates may run through a third protein. Some results given as binding are weak or reduced against the parent protein; the word gives no strength.
Experiments:
[1] = biological target: TTR-FLAG overexpressed in AML12 cells (not stated (human or mouse cDNA cloned)) (UniProt P07309); assay: co-IP
[2] = biological target: TTR-FLAG (mouse transthyretin labeled with FLAG) (mouse) (UniProt P07309); assay: co-IP

The chains behind the UniProt entries cited, without tags or fusion partners.
UniProt O55143: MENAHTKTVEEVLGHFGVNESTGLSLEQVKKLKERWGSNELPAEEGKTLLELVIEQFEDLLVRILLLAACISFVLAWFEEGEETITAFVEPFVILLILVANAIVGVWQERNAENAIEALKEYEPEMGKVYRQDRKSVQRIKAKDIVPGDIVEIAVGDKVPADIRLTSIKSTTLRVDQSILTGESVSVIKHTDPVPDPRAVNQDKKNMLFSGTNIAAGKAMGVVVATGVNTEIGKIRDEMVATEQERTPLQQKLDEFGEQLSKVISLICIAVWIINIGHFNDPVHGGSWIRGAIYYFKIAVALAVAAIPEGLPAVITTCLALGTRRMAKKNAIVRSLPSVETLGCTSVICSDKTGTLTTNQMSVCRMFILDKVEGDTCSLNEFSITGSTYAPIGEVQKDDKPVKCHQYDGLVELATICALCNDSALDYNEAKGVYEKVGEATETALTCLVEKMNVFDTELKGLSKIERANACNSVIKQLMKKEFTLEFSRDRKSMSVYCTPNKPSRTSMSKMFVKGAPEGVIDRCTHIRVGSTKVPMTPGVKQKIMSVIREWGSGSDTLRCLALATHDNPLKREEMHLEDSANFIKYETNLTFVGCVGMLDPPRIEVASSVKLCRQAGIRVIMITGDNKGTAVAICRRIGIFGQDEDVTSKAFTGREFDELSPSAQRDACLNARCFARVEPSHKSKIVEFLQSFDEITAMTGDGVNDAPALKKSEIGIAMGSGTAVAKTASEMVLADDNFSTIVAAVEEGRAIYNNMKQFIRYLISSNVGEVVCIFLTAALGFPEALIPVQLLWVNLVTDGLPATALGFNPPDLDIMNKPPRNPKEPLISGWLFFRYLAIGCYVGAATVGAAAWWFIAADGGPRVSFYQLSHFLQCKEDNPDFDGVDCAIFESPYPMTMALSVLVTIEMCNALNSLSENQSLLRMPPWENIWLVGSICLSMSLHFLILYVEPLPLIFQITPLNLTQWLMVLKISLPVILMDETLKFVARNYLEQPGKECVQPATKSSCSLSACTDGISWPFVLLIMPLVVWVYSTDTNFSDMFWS

Row | Substance | binding [1] | binding [2]
1 | endogenous SERCA2 protein (AML12 cells) (from UniProt O55143 1-1044) | binds | 
2 | SERCA2-MYC (mouse sarcoplasmic/endoplasmic reticulum calcium ATPase 2 labeled with MYC) (from UniProt O55143 1-1044) |  | binds

Reference: paper doi:10.1101/2025.10.15.25338095
